Results from patent US20170240613A1 (REGENTS OF THE UNIVERSITY OF COLORADO A BODY CORPORATE, published 2017).
No constants are given. Whether binding was seen depends on the method and setting. Some entries that bind do so weakly or less than the wild type. One block for each binder: values may come before it.

By UniProt entry, the sequences of proteins in these tests, tags left out. Where a name states a change or a piece, a line headed by the entry shows the natural chain unless it says otherwise.
UniProt Q6DKI7: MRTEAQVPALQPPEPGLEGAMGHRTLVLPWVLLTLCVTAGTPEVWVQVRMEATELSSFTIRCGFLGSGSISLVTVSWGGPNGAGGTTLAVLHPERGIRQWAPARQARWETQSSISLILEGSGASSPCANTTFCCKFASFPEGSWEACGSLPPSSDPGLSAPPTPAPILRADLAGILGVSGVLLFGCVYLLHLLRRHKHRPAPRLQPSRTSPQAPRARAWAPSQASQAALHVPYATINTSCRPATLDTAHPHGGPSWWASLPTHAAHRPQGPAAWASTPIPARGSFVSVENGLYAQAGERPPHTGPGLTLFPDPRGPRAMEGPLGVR

Assays:
[1] = target: human CD112R (form used in Example 18 not stated) (human) (UniProt Q6DKI7); assay: Example 18, FIG. 14; assay not described
[2] = target: human CD112R (form used in Example 18 not stated) (human) (UniProt Q6DKI7); assay: flow cytometry of human CD112R; panel title '4-4', but the axis line reads 'FL4-H :: 4-5 0.01ug'
[3] = target: human CD112R (form used in Example 18 not stated) (human) (UniProt Q6DKI7); assay: flow cytometry of human CD112R; axis line 'FL4-H ::2H6 0.01ug'

binding [1]: binds | binding [2]: binds
B1: CD112R monoclonal antibody mAb 4-4 (antibody, V domains shown)
VH: QVQLQQSGAELAKPGASVKMSCKASGYTFTSDWMHWVKQRPGQGLEWIGYINPSTGYTEYNQKFKDKATLTADKSSSTAYMQLRSLTSEDSAVYYCARGSSGSWFAYWGQGTLVTVSA
VL: DIVLTQSPASLAVSLGQRATISCRASQSVSTSSYSYMHWYQQKPGQPPKLLIKYASNLESGVPARFSGSGSGTDFTLNIHPVEEEDTATYYCQHSWEIPYTFGGGTKLEIK

binding [1]: binds | binding [3]: binds
B2: 2H6 CD112R monoclonal antibody (mouse anti-human CD112R, clone 2H6) (antibody, V domains shown)
VH: EVQLQQSGAELVRSGASVKMSCKVNDYTFTNYNMHWLRQTPGQGLEWIGYIYPGNGDTNYNQKFKGKATLTADTSSSTAYMQIISLTSEDPAVYFCARQGIHYYYIDVWGAGTTVTVSS
VL: DIEMTQSPATLSVTPGDRVSLSCRASQSIRDYLHWYQQKSHESPRLLIKYVSQSISGIPSRFSGSGSGSEFTLSINSVEPEDVGVYYCQNGHSLPLTFGSGTKLEIKR
